Experimental data reported in article PMC10163288.
This is one part of the list.

B1: il10ra_site1_normal_mot_HHH_b1_06816_000000239_0001_1_19_H_._HHH_b2_02034_0001_0000600024_0000002_0_af2pred_0001 (protein)
chain: SSSSSSDLEEQAEELLEEVEKIDNPQERTEVARKAIELAVRAGNPELAREISRIATRLSSSSSSS
B2: il10ra_site1_normal_mot_HHH_b1_07369_af2_000000079_0001_1_18_H_._HHH_b1_01602_0001_0000500042_0000001_0 (protein)
chain: SSSSDEEELERYIEIALRFAELAGDPEVAERIRQLLEEFREEGDPRYTIEAAKAATRVLHGSSSS
B3: il10ra_site1_normal_mot_HHH_b1_05056_000000217_0001_1_20_H_._HHH_b2_02585_0001_0000300044_0000001_0 (protein)
chain: SSSSSDEEEREEVEELLEEAKRIEDRREVARLLQEATHLALRLQDPELLREVWRVVREWASSSSS
B4: il10ra_site1_normal_mot_HHH_b2_06979_000000158_0001_42_57_H_._HHH_b1_03932_af2_0001_0000400018_0000001_0 (protein)
chain: SSSSTERELAERAIELLRRAAHIDDEEEVEELLEEAKELAKEAGNELLLFNIEFRERDLLSSSSS
B5: il10ra_site1_sap_7_mot_HHH_b2_06142_af2_000000101_0001_1_18_H_._HHH_b1_06107_0001_0000100002_0000002_0_0001 (protein)
chain: SSSSDEEVLERAAEVSQEAVRLALRQGDEEALQELWRLFRRIIEEGDPELLEELEELLERLSSSS
B6: il10ra_site1_sap_19_mot_HHH_b1_03900_000000129_0001_1_16_H_._HHH_b1_06902_af2_0001_0000300009_0000002_1_0001 (protein)
chain: SSSSSEDRRELYRLTREAVELDHEGDPEKAKEVLEEAIELARELGDMLLLRIAEWLYELNSSSSS
B7: il10ra_site1_normal_mot_HHH_b1_05185_000000011_0001_22_39_H_._HHH_b1_01436_0001_0000200019_0000001_1_af2pred_0001 (protein)
chain: SSSSSRLEESIRRALERLEKAIREGDEEFVRLTIRLIRILIELANNEELEEILEQLEREFGSSSS
B8: il10ra_site1_sap_23_mot_HHH_b1_01233_000000085_0001_1_18_H_._HHH_b1_01214_0001_0000100002_0000001_0_0001 (protein)
chain: SSSSDEEHIEELARAVERQLEQLSKYDPRLLERLAEAARKALELWDEELAREIEELAKELLSSSS
B9: il10ra_site1_sap_12_mot_HHH_b1_06789_af2_000000041_0001_1_20_H_._HHH_b2_05839_af2_0001_0000300031_0000002_0_0001 (protein)
chain: SSSSSDEEEIEELLREIKELLENNDRERALELIQEALRVIFQHSDEEALRELFELVRKLGSSSSS
B10: il10ra_site1_sap_18_mot_HHH_b1_05860_000000142_0001_1_19_H_._HHH_b2_01497_0001_0000300018_0000001_0_0001 (protein)
chain: SSSEEHNRVAEELARALIRNDEELVEELLEELEEYVEETNDPAAREMLEIIRRAFEALRKGSSSS
B11: il10ra_site1_normal_mot_7f9b3cf633cfd27bca007b62ade1be3b_0001_1_000000138_0001_17_32_H_._HHH_b1_02747_0001_0000100006_0000002_0_af2pred_0001 (protein)
chain: SSSSSSEQLFRAAERLIRALGNPELAEEVEELLERYEKEGDERYEQEAAELVLEAARLADSSSSS
B12: il10ra_site1_normal_mot_HHH_b2_06142_af2_000000101_0001_1_18_H_._89c65acb93c0dbf80477798e1fe8a9b1_0001_1_0001_0000800018_0000001_0_af2pred_dldesign_0_af2pred (protein)
chain: SPELRALFERLLADPHDYAARVALYRLLTELTGDPEKAAEILAELYRLLRAGKPEEARALLERVE
B13: il10ra_site1_sap_20_mot_HHH_b2_00984_000000042_0001_1_20_H_._HHH_b1_04990_af2_0002_0000200010_0000001_0_0001_af2pred_0001 (protein)
chain: SSSSSSEEEIEELIEEAKRIEDPEEASHVLLKAFALANEARDPELRKEVEEAAQEVMESISSSSS
B14: il10ra_site1_normal_mot_HHH_b1_05357_000000034_0001_23_39_H_._HHH_b2_01639_0001_0000100002_0000001_0 (protein)
chain: SSSSSSDSEEEVEELLEEAKQIEDRRRRSHVLIRAYAIAHQANDPELEELVRKVAIELSSSSSSS
B15: il10ra_site1_sap_23_mot_HHH_b1_08508_000000230_0001_42_56_H_._5ee4a038a4e38403a52b52cc808907e6_0001_1_0001_0000500032_0000001_1_0001_af2pred_0001 (protein)
chain: SSSSKEEELIELALKFLKFLVEQGDREAAKRLARAIEQLIKRLGDEELQEIVEELLRLAEERSSS
B16: il10ra_site1_normal_mot_HHH_b1_05056_000000217_0001_1_20_H_._HHH_b1_01607_0001_0000100005_0000001_0 (protein)
chain: SSSSDEYREEVERLLEEAEEAAERGDPRKAARLLQEATRLALEAQDPELLQLVWEVVQRIASSSS
B17: il10ra_site1_sap_14_mot_0528de937f51a16133d72caa21901941_0001_000000147_0001_1_14_H_._0528de937f51a16133d72caa21901941_0001_af2_0001_0000200007_0000001_0_0001 (protein)
chain: DLLEAALEAAEEAGDPEAARIIEEVIRLLERGEVSPEELREELEELIKETGNLFLWQALFALRRE
B18: il10ra_site1_normal_mot_513c16ae44941e68898e0f7c259e5a28_0001_1_000000056_0001_35_50_H_._HHH_b1_02780_0001_0000100011_0000001_0 (protein)
chain: SSSSSQEEELLKAVARFLEQALEYNDERRLRAMLYALEFLARELGDEEAKEVVEEVQELLESSSS
B19: il10ra_site1_normal_mot_HHH_b2_00984_000000042_0001_1_20_H_._HHH_b1_04649_0001_0000100005_0000001_1 (protein)
chain: SSSSSEEEEEVEKLLEEAKRIDNLEELARVLLEAVRIALEIGNQELLQEIWRLIKELIKEISSSS
B20: il10ra_site1_sap_30_mot_HHH_b1_01011_000000096_0001_1_19_H_._HHH_b1_05957_0001_0000600022_0000001_0_0001_af2pred_dldesign_0_af2pred (protein)
chain: SKLEEVKRVVEYQAEAAGVEEVKVEVKDGKVIVTLTGDSRACELVELAAEAAGETFGVEVEVIRE
B21: il10ra_site1_normal_mot_HHH_b1_06789_af2_000000041_0001_1_20_H_._HHH_b1_07672_0001_0000100005_0000002_0 (protein)
chain: SSSSSNTRWLAEQAFIALERAIELGDEERIEHILEILENLAEFANDPYARELVEEARELLSSSSS
B22: il10ra_site1_sap_21_mot_HHH_b2_03220_af2_000000223_0001_23_40_H_._HHH_b1_07627_af2_0001_0000100003_0000001_0_0001_af2pred_0001 (protein)
chain: SSSSNWREDVESALRAAELAFERGDEEKAERILELARRLAELANDEELERLVEEVEKRLNSSSSS
B23: il10ra_site1_sap_15_mot_HHH_b2_02736_000000092_0001_22_38_H_._d0e5aa17b8994cf95a3b92f728436530_0001_0001_0000100001_0000002_0_0001 (protein)
chain: SSSSDEAQEEALKLSIEAFRLALRGNPEEARELLEEALKLAEEGGDERLVEMIEQLLETLSSSSS
B24: il10ra_site1_normal_mot_HHH_b1_07743_af2_000000164_0001_42_55_H_._HHH_b1_02184_0001_0000100001_0000001_0 (protein)
chain: SSSSDEREELARRVAELLVEASRIEDEEKVEELLREARELAEKLNNDILRAQVESLERLLSSSSS
B25: il10ra_site1_normal_mot_HHH_b1_07380_000000129_0001_1_20_H_._HHH_b1_07761_0001_0000800041_0000001_0 (protein)
chain: SSSSDEEDHELYRLSRRAAELLAEGNPEEAEELLREAEELAERNNNRVLLFTIRFLLRQVTSSSS
B26: il10ra_site1_normal_mot_a6c796b944619e241e020fd597ddb6da_0001_af2_000000092_0001_15_31_H_._HHH_b2_01778_af2_0001_0000100002_0000002_0_af2pred_0001 (protein)
chain: SSSSSSSEEEQEVHALIFFARISDNEDAAKISLELAKKIAEEINNEELREEIEELEKELSSSSSS
B27: il10ra_site1_normal_mot_HHH_b2_02537_000000065_0001_1_20_H_._HHH_b1_07925_0001_0000100001_0000001_0 (protein)
chain: SSSSTDEVFEFTRRVIEEASELFRNGNPEEAERVLEEAREYLEELGDELALRSVEHLLRAISSSS
B28: il10ra_site1_normal_mot_HHH_b2_02693_af2_000000213_0001_19_35_H_._HHH_b2_04018_af2_0001_0000100002_0000002_0 (protein)
chain: SSSSDEVERIVEELLEEAKELEERGNPEEALRALARAAARASRNNNKELLEKVQQAQIELLSSSS
B29: il10ra_site1_normal_mot_HHH_b2_03038_000000109_0001_1_20_H_._HHH_b2_08018_0001_0000300011_0000002_0_af2pred_0001 (protein)
chain: SSSSSDKEELEELIRQLEEALEEGNLRLLIELARELNKLAVELNDPEALEVVHRVTEAFSSSSSS
B30: il10ra_site1_sap_23_mot_HHH_b2_04499_af2_000000256_0001_42_56_H_._HHH_b1_06919_af2_0001_0000900022_0000001_0_0001 (protein)
chain: SSSSDEEVEELIKEAQELLERGDPREAARVLQRAVRLALEAGDPELLQEIWELVREIAERGSSSS
B31: il10ra_site1_normal_mot_HHH_b2_00345_af2_000000013_0001_42_56_H_._HHH_b1_01292_0001_0000200026_0000001_0 (protein)
chain: SSSSSSDISELAIEALRILHRRSDPELLKELWELFKLVIEHGDPEYEEEFREFIEEVTSSSSSSS
B32: il10ra_site1_normal_mot_HHH_b1_01821_000000158_0001_23_39_H_._HHH_b2_00650_af2_0001_0000600028_0000001_0 (protein)
chain: SSSSSDEEERIEELLEELEEVLREGDDERASEIAIEAVQLAQEAGDQEALQLVWRLFQNNSSSSS
B33: il10ra_site1_sap_16_mot_HHH_b2_00943_af2_000000149_0001_1_17_H_._HHH_b1_06222_0001_0000300032_0000001_0_0001 (protein)
chain: SSSSDKRSERIYELIKRVAELHYEGNPEEAQELLEEAKELVEELGDQVFRFNIELLERQLNSSSS
B34: il10ra_site1_normal_mot_HHH_b1_06816_000000239_0001_1_19_H_._HHH_b1_03485_0001_0000100006_0000002_0_af2pred_0001 (protein)
chain: SSSSDEEAREVFEEARKQLEELREEGDVEEFTRLVREVIELLLELGNPEEARKLSQEASKLSSSS
B35: il10ra_site1_normal_mot_d2735b3c0fe9b97dc03c9ec5d23a03fd_0001_1_af2_000000071_0001_17_32_H_._HHH_b1_04565_af2_0001_0000200013_0000002_0 (protein)
chain: SSSSSDDLEQRIEAILFFAKLTQNPEVAKKAIEYAIELAEEINNEELLKEAEKLLEELRSSSSSS
B36: il10ra_site1_sap_22_mot_49468d6c54d8157f7969f91124172a68_0001_af2_000000173_0001_37_51_H_._ac211477d601265d37a31625d54e07f1_0001_1_af2_0001_0000400013_0000002_0 … (protein)
chain: SSSSSSDEEEEVQELLEEAEHIEDPRELTEVLLEATRVAIQLGDPKLLQLVWRVVHRLSSSSSSS
B37: il10ra_site1_normal_mot_8756ee2cf497b5429c717dfc0c0bcfd6_0001_000000186_0001_1_13_H_._HHH_b1_06748_af2_0001_0000200008_0000001_0 (protein)
chain: SSSSDEDAEEVIELLREAAELHSDGNPEEAKEVLEEARRLAEENNNDVLLAQIEYLERLLDSSSS

Each binder was assayed against il10ra, Q13651 (assay: yeast display titration).

Apparent Kd, inactive:
B1 no binding seen
B2 no binding seen
B3 no binding seen
B4 no binding seen
B5 no binding seen
B6 no binding seen
B7 no binding seen
B8 no binding seen
B9 no binding seen
B10 no binding seen
B11 no binding seen
B12 no binding seen
B13 no binding seen
B14 no binding seen
B15 no binding seen
B16 no binding seen
B17 no binding seen
B18 > 1.44 µM
B19 no binding seen
B20 no binding seen
B21 no binding seen
B22 no binding seen
B23 no binding seen
B24 no binding seen
B25 no binding seen
B26 no binding seen
B27 no binding seen
B28 no binding seen
B29 no binding seen
B30 no binding seen
B31 no binding seen
B32 no binding seen
B33 no binding seen
B34 no binding seen
B35 no binding seen
B36 no binding seen
B37 no binding seen

Already shown: an excerpt of the list.
Apparent Kd, inactive:
B9 no binding seen
B10 no binding seen
